# Measured values from US20120183489A1, “COMPOSITIONS COMPRISING METALLATED MALODOR CONTROL POLYMERS” (priority 2011, published 2012).
# Assay: Fadometer test on treated fabric (yellowing under simulated sunlight)
# Conditions: 1000 ppm aldehyde solution; 0.75 g on 10 cm x 10 cm swatch; 5 hours simulated sunlight, SUNTEST CPS+
row,SMILES,Fadometer Test on treated Fabric (yellowing)
1,CCCCC/C(C=O)=C/c1ccccc1 [amylic cinnamic aldehyde],Yellowish brown
2,CC(C)=CCC/C(C)=C/C=O [citral aldehyde],No yellowing
3,CC(C)=CCCC(C)CC=O (stereo not shown) [citronellal],Yellowish brown
4,CCCCCCCCCCCC=O [lauric aldehyde],No yellowing
